Laboratory results published in PubChem BioAssay AID1671190 (National Center for Advancing Translational Sciences (NCATS), 2021).
Where “and” joins values, the source holds several entries; their conditions need not be identical. Equal entries are not always repeated. About 6,100 (1.1%) of roughly 580,000 compounds were called active. Inconclusive results, whose numbers are uncertain, are shown with a selection of clear calls. Calls come from the whole dose curve; as a rule, active = well fitted inhibition curve with a large enough effect; inconclusive = small, poorly fitted or top-dose-only effect, or another doubt; inactive = no such curve, though single readings can be large or run the other way. Where the call is inconclusive, the potency comes from a doubtful curve fit.

Amino acid sequences for entries named in this document (tags omitted).
UniProt P18054, whole entry, looked up: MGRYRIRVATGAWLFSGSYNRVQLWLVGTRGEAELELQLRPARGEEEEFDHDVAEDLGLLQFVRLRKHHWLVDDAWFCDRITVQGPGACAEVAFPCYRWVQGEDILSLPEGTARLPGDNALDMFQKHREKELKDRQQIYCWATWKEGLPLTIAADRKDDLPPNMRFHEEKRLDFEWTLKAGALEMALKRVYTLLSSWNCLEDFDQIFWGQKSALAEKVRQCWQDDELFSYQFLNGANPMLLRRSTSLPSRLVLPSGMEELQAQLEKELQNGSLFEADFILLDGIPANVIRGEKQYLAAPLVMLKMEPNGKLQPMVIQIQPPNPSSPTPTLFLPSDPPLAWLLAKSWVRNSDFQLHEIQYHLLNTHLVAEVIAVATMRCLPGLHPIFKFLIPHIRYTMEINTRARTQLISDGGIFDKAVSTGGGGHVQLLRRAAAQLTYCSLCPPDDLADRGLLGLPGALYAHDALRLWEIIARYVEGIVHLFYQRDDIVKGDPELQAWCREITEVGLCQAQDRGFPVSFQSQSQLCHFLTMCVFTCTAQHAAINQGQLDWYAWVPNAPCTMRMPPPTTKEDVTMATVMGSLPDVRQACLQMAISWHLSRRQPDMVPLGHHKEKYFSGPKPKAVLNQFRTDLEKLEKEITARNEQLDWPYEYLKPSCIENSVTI

Target: Polyunsaturated fatty acid lipoxygenase ALOX12 (Homo sapiens) (UniProt P18054)
Test: Primary qHTS assay for inhibitors of human arachidonate 12S-lipoxygenase (ALOX12): Round 2
Conditions: purified 12hLO, xylenol orange hydroperoxide absorbance; series mostly up to 108 µM
How it was run: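 Purified human 12hLO (150 nM final) in 25 mM Hepes, 0.01% Triton X-100, pH 7.0 was preincubated 15 min at room temperature with compound. Then 40 uM arachidonic acid was added, 30 min. Hydroperoxide was read by Fe-XO absorbance ratio 573/405 nm.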
Potency is the fitted concentration of half-maximal effect.

SMILES | Potency
Fc1ccc(CNC(=S)NCCc2ccccc2)cc1 | inconclusive: 50.1 µM [inhibitor, partial curve, poor fit]
CC1CCN(C(=O)c2ccc3c(Cl)c4c(nc3c2)CCCC4)CC1 | inactive
CCN(Cc1ccc(OC)c(COC)c1)CC1CCCN(CCc2cccc(OC)c2)C1 (stereo not drawn) | inactive
COCCNC(=S)N/N=C(\C)c1ccc(Cl)c(Cl)c1 | inconclusive: 35.5 µM [inhibitor, partial curve]
CC1(C(=O)NS(=O)(=O)c2ccc(C#N)cc2)CCN1C(=O)Cc1ccccc1Cl (stereo not drawn) | inconclusive: 7.08 µM [inhibitor, full curve]
CCCCn1c(NC(=O)C2CCCCC2)nc2ccccc21 | inactive
O=S(=O)(NCCc1ncc2ccccn12)c1ccc(Cl)cc1 | inconclusive: 50.1 µM [inhibitor, single point]
Cc1ccc(-c2cc(C(=O)Nc3ccccc3F)no2)cc1C | inconclusive: 126 µM [inhibitor, single point]
COc1ccc(C2(c3ccc(OC)cc3)NC(=O)N(CC(=O)Nc3ccc(N4CCOCC4)cc3)C2=O)cc1 | inconclusive: 63.1 µM [inhibitor, partial curve, poor fit]
CC(C)CC(C(=O)Nc1oc(-c2ccco2)c(-c2ccco2)c1C#N)N1C(=O)c2ccccc2C1=O (stereo not drawn) | inconclusive: 44.7 µM [inhibitor, partial curve, poor fit]
COc1cc(OC)c(C2CC(=O)Oc3n[nH]c(-c4ccccc4)c32)cc1OC (stereo not drawn) | inconclusive: 35.5 µM [inhibitor, partial curve, poor fit]
CC(C)C(=O)NC(=S)Nc1nnn(C)n1 | inconclusive: 20 µM [inhibitor, partial curve]
S=c1[nH]nc(-c2ccc(Cl)cc2)n1CC1CCCO1 (stereo not drawn) | active: 44.7 µM
COC[C@@H]1CN(Cc2c(F)cccc2Cl)C[C@H]1C(=O)NC1CC1 | inactive
Cc1cccc(OCC2(CNC(=O)c3cc(C)nn3C)C[C@@H](O)[C@@H](O)C2)n1 (stereo partly drawn) | active: 25.1 µM
C#CC[N+](C)(C)CCN1C(=O)C2C3C=CC(C3)C2C1=O (stereo not drawn) | inconclusive: 141 µM [inhibitor, partial curve, poor fit]
C/C=C1\COC(C(=O)NCc2cccc(OC)c2OC)(C(F)(F)F)C=C1C=C1CCCCC1 (stereo not drawn) | inconclusive: 141 µM [inhibitor, single point]
COCCNc1nc(Oc2cccc(F)c2)c2sccc2n1 | inconclusive: 44.7 µM [inhibitor, partial curve, poor fit]
COc1ccc(Nc2nc(-c3ccc(OC)cc3)c(CCC(=O)O)s2)cc1 | inconclusive: 50.1 µM [inhibitor, partial curve, poor fit] and inconclusive: 28.2 µM [inhibitor, partial curve, poor fit]
CCOC(=O)C1=C(C)NC(C)=C(C(=O)OCC)C1/C=C/c1ccccc1 | inconclusive: 50.1 µM [inhibitor, partial curve, poor fit]
Cc1cc(NC(=O)CCC(=O)N(c2ccc(F)cc2)C(C(=O)NC2CCCC2)c2ccccc2)no1 (stereo not drawn) | inactive
CCOC(=O)c1cnc2ccc(OC)cc2c1Nc1ccc(N2CCN(C)CC2)cc1 | inconclusive: 35.5 µM [inhibitor, single point]
COc1cc(OC)cc(-c2nc3cc(C)ccc3o2)c1 | inactive

SMILES | Potency
COCc1cc(Sc2ccc(Cl)cc2)nc(C)n1 | inactive
CCN1C(=O)[C@H]2[C@@H](c3ccc(C)cc3)N[C@]3(CCCN(Cc4ccc(C)cc4)C3=O)[C@H]2C1=O | inconclusive: 28.2 µM [inhibitor, partial curve, poor fit]
CN1CCN(C(C(=O)O)c2cn(C)c3cc(C(=O)O)ccc23)CC1 (stereo not drawn) | inconclusive: 112 µM [inhibitor, single point]
CCCCC(=O)N1CCN(c2nc(C)c3c(c2C#N)CCCC3)CC1 | inactive
CC(N)=NCCCC[C@H](N)C(=O)O | inconclusive: 5.01 µM [inhibitor, full curve, poor fit]
COc1ccccc1N1CCN(C(=O)Cn2nnc(-c3ccncc3)n2)CC1 | inactive
COc1ccc(Cc2c(-c3ccc(C)cc3)nc3c4ccccc4ccn23)c(C)c1 | inconclusive: 31.6 µM [inhibitor, partial curve, poor fit]
CC(C)N1CC(=O)N2CSCC2C1=O (stereo not drawn) | inconclusive: 100 µM [inhibitor, single point]
COc1ccc(NC(=O)C(C)Oc2ccc(C)c(C)c2)c2cccnc12 (stereo not drawn) | inactive
O=C(CCc1ccsc1)N(Cc1ccco1)C1CC1 | active: 15.8 µM
CC(C)(C)C1=C(C#N)C(c2cccnc2)C(C#N)=C(N)O1 (stereo not drawn) | inconclusive: 112 µM [inhibitor, partial curve, poor fit]
CC(C)(C)CC(C)(C)SSc1n[nH]c(=S)s1 | active: 35.5 µM
COC(=O)[C@H]1C[C@H]1[C@@H](NC(=O)c1cccnc1)c1ccccc1 | inconclusive: 5.01 µM [inhibitor, full curve, poor fit]
COCCN(C(=O)CCC(=O)Nc1nccs1)C(C(=O)NCCC(C)C)c1ccc(OC)cc1 (stereo not drawn) | inconclusive: 200 µM [inhibitor, partial curve, poor fit]
CCn1c(SCC(=O)Nc2ccccc2-c2ccccc2)nnc1-c1ccoc1C | inactive
O=C1Nc2ccc(Br)cc2C1=C1CCCCC1 | inconclusive: 50.1 µM [inhibitor, partial curve, poor fit]
CC(=O)N(CCC(c1ccccc1)c1ccco1)Cc1cccs1 (stereo not drawn) | inconclusive: 50.1 µM [inhibitor, partial curve, poor fit]
Nc1ccc2ccc(NS(=O)(=O)N3CCCCC3)cc2c1 | inconclusive: 100 µM [inhibitor, single point]
Cc1ccnc(NS(=O)(=O)c2ccc(NC(=O)c3nc(SC(C)C)ncc3Cl)cc2)n1 | inconclusive: 12.6 µM [inhibitor, full curve, poor fit]
O=C(O)C1(Cc2nc3ccccc3s2)CCCCC1 | inconclusive: 70.8 µM [inhibitor, partial curve, poor fit]
COc1ccc(-c2nc3c(c(-c4ccccc4)n2)CN(C(=O)c2ccccc2F)CC3)cc1 | inconclusive: 79.4 µM [inhibitor, single point]
CCCN(CCC)Cc1cc(=O)oc2cc3c(cc12)CCC3 | inconclusive: 50.1 µM [inhibitor, partial curve, poor fit]
CCn1ccnc1C(O)c1cccc(OC)c1 (stereo not drawn) | inconclusive: 14.1 µM [inhibitor, partial curve]

Not a retest: three of the compounds above.
SMILES | Potency
COCc1cc(Sc2ccc(Cl)cc2)nc(C)n1 | inactive
CCN1C(=O)[C@H]2[C@@H](c3ccc(C)cc3)N[C@]3(CCCN(Cc4ccc(C)cc4)C3=O)[C@H]2C1=O | inconclusive: 28.2 µM [inhibitor, partial curve, poor fit]
CN1CCN(C(C(=O)O)c2cn(C)c3cc(C(=O)O)ccc23)CC1 (stereo not drawn) | inconclusive: 112 µM [inhibitor, single point]

The list goes on:

SMILES | Potency
O=C(NC1CCCc2ccccc21)c1ccsc1 (stereo not drawn) | inconclusive: 44.7 µM [inhibitor, partial curve, poor fit]
CC(=O)Nc1ccc(-c2nnc3n2CCCC3)cc1 | inconclusive: 1.26 µM [inhibitor, full curve, poor fit]
Cc1cccc(NC(=O)CN2CCN(C(=O)c3ccc(-c4nc5ccccc5s4)o3)CC2)c1C | inactive
Cc1nc2cccnc2n1CC1CCCN(C(=O)Nc2ccccc2Cl)C1 (stereo not drawn) | inactive
CCOC(=O)c1c(C)oc2c1c(C(c1cccnc1)N1CCCCC1)c(O)c1ccccc12 (stereo not drawn) | inactive
COc1ccc(C(=O)Nc2ccc(S(=O)(=O)NC(C)=O)cc2)cc1 | inconclusive: 50.1 µM [inhibitor, partial curve, poor fit]
COc1ccc(NC(=O)N2CCN(c3nc(C)cc(Nc4ccc(C)cc4)n3)CC2)cc1 | inconclusive: 112 µM [inhibitor, single point]
O=C(NCc1ccccc1)C(c1ccc(C(F)(F)F)cc1)n1c(=O)c(-c2ccco2)nc2ccccc21 (stereo not drawn) | active: 5.01 µM
COc1ccc2[nH]c(O)c(N=NC(=O)Cc3cccs3)c2c1 | inactive
C#CC1(O)CCCC2C3CCC4CC(OC(C)=O)CCC4(C)C3C(=O)CC21C (stereo not drawn) | inactive
O=C1CCN(S(=O)(=O)c2ccccc2)CCCN(Cc2cccc3[nH]ccc23)CCN1 | inactive
CCCCNCc1cccn1-c1ccccc1 | inconclusive: 2.24 µM [inhibitor, full curve, poor fit]
COc1cc2c(cc1O)CCC1C2CC[C@@]2(C)C1CC[C@@H]2O (stereo partly drawn) | inconclusive: 3.06 µM [inhibitor, full curve, poor fit]
CNc1nc(-c2ccc(S(=O)(=O)N3CCCCC3)cc2)cs1 | inconclusive: 56.2 µM [inhibitor, partial curve, poor fit]
COc1cccc(NC(=O)CCP(C)(=O)O)c1 | inactive
CCN(c1ccccc1)S(=O)(=O)c1ccc(N)c(OC)c1 | inconclusive: 100 µM [inhibitor, single point]
Cc1ccc(NC(=O)COC(=O)c2ccc3c(c2)NC(=O)C2CCCN32)cc1 (stereo not drawn) | inconclusive: 0.316 µM [inhibitor, full curve, poor fit]
CC(Sc1nnc(N)s1)c1ccccc1Cl (stereo not drawn) | inactive
COc1ccc(C2=NCCn3c2c2ccc(OC)cc2[n+]3[O-])cc1 | inconclusive: 112 µM [inhibitor, single point]
O=C1C2C(C(=O)N1CCN1CCN(Cc3ccc([N+](=O)[O-])cc3)CC1)[C@H]1C=C[C@@H]2C1 (stereo partly drawn) | inconclusive: 0.355 µM [inhibitor, full curve, poor fit]
COC(=O)c1c(C(=O)OC)c(-c2ccc(Br)cc2)n2c1CS(=O)C2 (stereo not drawn) | inconclusive: 100 µM [inhibitor, single point]
CCCCCn1nc(C(=O)Nc2nc(-c3ccc(OC)cc3)c(C)s2)c2ccccc2c1=O | inactive
